Source: PMC9335864
These are yes or no findings as the source states them, for the method shown. In cells and extracts the contact can be indirect. Some binding calls cover weakened binding; strength is not graded here.

Target: T1, p47 (endogenous) (human (endogenous in U2OS)) (UniProt Q9UNZ2)
T1 sequence: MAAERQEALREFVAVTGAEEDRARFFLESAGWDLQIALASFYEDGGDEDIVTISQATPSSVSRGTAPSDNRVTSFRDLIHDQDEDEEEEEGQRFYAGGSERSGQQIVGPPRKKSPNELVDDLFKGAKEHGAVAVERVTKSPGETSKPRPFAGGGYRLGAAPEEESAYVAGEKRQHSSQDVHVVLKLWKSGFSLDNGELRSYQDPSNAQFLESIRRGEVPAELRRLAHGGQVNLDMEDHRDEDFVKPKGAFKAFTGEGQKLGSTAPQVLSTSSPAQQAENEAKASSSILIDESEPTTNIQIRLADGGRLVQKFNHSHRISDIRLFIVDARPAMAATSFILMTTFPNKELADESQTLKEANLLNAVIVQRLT
Test: co-IP; co-IP of p47 from lysates of U2OS cells transfected with plasmids for HA-tagged antibody fragments; p47-containing complexes captured and blotted

binding: binds
Substance: p97 (endogenous) (from UniProt P55072 1-806)
